Source: PMC4546362
These are yes or no findings as the source states them, for the method shown. In cells and extracts the contact can be indirect. Some binding calls cover weakened binding; strength is not graded here. Sequences can lack the tags named with a protein.

T1: mel-Bam::HA (D. melanogaster Bag of marbles, Flag- and HA-tagged) (D. melanogaster) (UniProt P22745)
T1 sequence: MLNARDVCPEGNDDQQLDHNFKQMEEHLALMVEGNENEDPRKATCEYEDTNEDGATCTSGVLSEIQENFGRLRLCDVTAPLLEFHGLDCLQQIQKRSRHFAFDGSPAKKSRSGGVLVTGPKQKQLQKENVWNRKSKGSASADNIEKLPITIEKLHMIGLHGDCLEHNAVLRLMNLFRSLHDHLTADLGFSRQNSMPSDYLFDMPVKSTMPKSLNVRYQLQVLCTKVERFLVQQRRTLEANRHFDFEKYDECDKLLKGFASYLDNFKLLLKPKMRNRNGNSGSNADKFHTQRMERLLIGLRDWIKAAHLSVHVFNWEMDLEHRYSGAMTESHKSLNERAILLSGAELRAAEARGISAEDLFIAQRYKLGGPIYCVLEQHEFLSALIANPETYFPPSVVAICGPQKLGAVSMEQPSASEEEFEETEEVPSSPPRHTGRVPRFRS

T2: mel-Bgcn::MYC (D. melanogaster Benign gonial cell neoplasm, Flag- and MYC-tagged) (D. melanogaster) (UniProt Q9W1I2)
T2 sequence: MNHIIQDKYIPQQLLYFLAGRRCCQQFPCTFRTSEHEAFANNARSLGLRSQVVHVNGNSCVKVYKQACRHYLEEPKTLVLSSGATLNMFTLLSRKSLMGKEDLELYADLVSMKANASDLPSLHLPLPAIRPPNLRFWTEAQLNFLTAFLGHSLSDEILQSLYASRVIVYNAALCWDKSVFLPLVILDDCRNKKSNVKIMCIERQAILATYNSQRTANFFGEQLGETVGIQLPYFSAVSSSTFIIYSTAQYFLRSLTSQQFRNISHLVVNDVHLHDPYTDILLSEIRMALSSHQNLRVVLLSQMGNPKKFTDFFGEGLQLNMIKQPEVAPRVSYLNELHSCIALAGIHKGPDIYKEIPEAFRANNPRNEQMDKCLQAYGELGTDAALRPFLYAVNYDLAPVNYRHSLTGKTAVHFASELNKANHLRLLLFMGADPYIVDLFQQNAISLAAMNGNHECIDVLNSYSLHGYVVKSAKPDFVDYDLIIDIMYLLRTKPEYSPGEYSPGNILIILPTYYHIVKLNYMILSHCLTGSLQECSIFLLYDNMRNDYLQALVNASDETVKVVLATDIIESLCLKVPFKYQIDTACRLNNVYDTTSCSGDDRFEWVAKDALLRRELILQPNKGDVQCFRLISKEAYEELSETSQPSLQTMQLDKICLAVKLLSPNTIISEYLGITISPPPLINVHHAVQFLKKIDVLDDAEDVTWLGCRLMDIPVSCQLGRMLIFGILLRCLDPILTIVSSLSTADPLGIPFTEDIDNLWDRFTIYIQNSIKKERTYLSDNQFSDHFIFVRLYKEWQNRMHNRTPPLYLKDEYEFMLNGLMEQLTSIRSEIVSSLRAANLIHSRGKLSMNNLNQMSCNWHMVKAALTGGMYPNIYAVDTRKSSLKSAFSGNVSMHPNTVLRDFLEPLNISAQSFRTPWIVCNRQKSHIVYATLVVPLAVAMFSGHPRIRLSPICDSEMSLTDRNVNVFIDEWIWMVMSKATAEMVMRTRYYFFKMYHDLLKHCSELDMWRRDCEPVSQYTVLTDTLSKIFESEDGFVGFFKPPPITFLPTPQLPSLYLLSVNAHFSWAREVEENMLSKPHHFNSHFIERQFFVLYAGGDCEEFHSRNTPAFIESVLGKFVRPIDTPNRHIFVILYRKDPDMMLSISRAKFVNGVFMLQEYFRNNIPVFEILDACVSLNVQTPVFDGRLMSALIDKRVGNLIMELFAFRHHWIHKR


Experiments:
[1] = target: T1, mel-Bam::HA (D. melanogaster Bag of marbles, Flag- and HA-tagged) (D. melanogaster); assay: co-IP; S2 cells co-transfected with mel-Bgcn::MYC and Bam::HA (or HA alone); lysis buffer 50 mM Tris-HCl pH 7.8, 150 mM NaCl, 0.1% NP-40; anti-HA (3F10) on Protein G Dynabeads, 4°C overnight; immunoprecipitates analysed by Western blot
[2] = target: T2, mel-Bgcn::MYC (D. melanogaster Benign gonial cell neoplasm, Flag- and MYC-tagged) (D. melanogaster); assay: co-IP; S2 cells co-transfected with Bam::HA and mel-Bgcn::MYC (or MYC alone); lysis buffer 50 mM Tris-HCl pH 7.8, 150 mM NaCl, 0.1% NP-40; anti-Myc (9E10) on Protein G Dynabeads, 4°C overnight; immunoprecipitates analysed by Western blot

binding [1] | binding [2] | Binder
binds |  | mel-Bgcn::MYC (D. melanogaster Benign gonial cell neoplasm, Flag- and MYC-tagged) (protein, UniProt Q9W1I2 1-1215) MNHIIQDKYIPQQLLYFLAGRRCCQQFPCTFRTSEHEAFANNARSLGLRSQVVHVNGNSCVKVYKQACRHYLEEPKTLVLSSGATLNMFTLLSRKSLMGKEDLELYADLVSMKANASDLPSLHLPLPAIRPPNLRFWTEAQLNFLTAFLGHSLSDEILQSLYASRVIVYNAALCWDKSVFLPLVILDDCRNKKSNVKIMCIERQAILATYNSQRTANFFGEQLGETVGIQLPYFSAVSSSTFIIYSTAQYFLRSLTSQQFRNISHLVVNDVHLHDPYTDILLSEIRMALSSHQNLRVVLLSQMGNPKKFTDFFGEGLQLNMIKQPEVAPRVSYLNELHSCIALAGIHKGPDIYKEIPEAFRANNPRNEQMDKCLQAYGELGTDAALRPFLYAVNYDLAPVNYRHSLTGKTAVHFASELNKANHLRLLLFMGADPYIVDLFQQNAISLAAMNGNHECIDVLNSYSLHGYVVKSAKPDFVDYDLIIDIMYLLRTKPEYSPGEYSPGNILIILPTYYHIVKLNYMILSHCLTGSLQECSIFLLYDNMRNDYLQALVNASDETVKVVLATDIIESLCLKVPFKYQIDTACRLNNVYDTTSCSGDDRFEWVAKDALLRRELILQPNKGDVQCFRLISKEAYEELSETSQPSLQTMQLDKICLAVKLLSPNTIISEYLGITISPPPLINVHHAVQFLKKIDVLDDAEDVTWLGCRLMDIPVSCQLGRMLIFGILLRCLDPILTIVSSLSTADPLGIPFTEDIDNLWDRFTIYIQNSIKKERTYLSDNQFSDHFIFVRLYKEWQNRMHNRTPPLYLKDEYEFMLNGLMEQLTSIRSEIVSSLRAANLIHSRGKLSMNNLNQMSCNWHMVKAALTGGMYPNIYAVDTRKSSLKSAFSGNVSMHPNTVLRDFLEPLNISAQSFRTPWIVCNRQKSHIVYATLVVPLAVAMFSGHPRIRLSPICDSEMSLTDRNVNVFIDEWIWMVMSKATAEMVMRTRYYFFKMYHDLLKHCSELDMWRRDCEPVSQYTVLTDTLSKIFESEDGFVGFFKPPPITFLPTPQLPSLYLLSVNAHFSWAREVEENMLSKPHHFNSHFIERQFFVLYAGGDCEEFHSRNTPAFIESVLGKFVRPIDTPNRHIFVILYRKDPDMMLSISRAKFVNGVFMLQEYFRNNIPVFEILDACVSLNVQTPVFDGRLMSALIDKRVGNLIMELFAFRHHWIHKR
 | binds | mel-Bam::HA (D. melanogaster Bag of marbles, Flag- and HA-tagged) (protein, UniProt P22745 1-442) MLNARDVCPEGNDDQQLDHNFKQMEEHLALMVEGNENEDPRKATCEYEDTNEDGATCTSGVLSEIQENFGRLRLCDVTAPLLEFHGLDCLQQIQKRSRHFAFDGSPAKKSRSGGVLVTGPKQKQLQKENVWNRKSKGSASADNIEKLPITIEKLHMIGLHGDCLEHNAVLRLMNLFRSLHDHLTADLGFSRQNSMPSDYLFDMPVKSTMPKSLNVRYQLQVLCTKVERFLVQQRRTLEANRHFDFEKYDECDKLLKGFASYLDNFKLLLKPKMRNRNGNSGSNADKFHTQRMERLLIGLRDWIKAAHLSVHVFNWEMDLEHRYSGAMTESHKSLNERAILLSGAELRAAEARGISAEDLFIAQRYKLGGPIYCVLEQHEFLSALIANPETYFPPSVVAICGPQKLGAVSMEQPSASEEEFEETEEVPSSPPRHTGRVPRFRS
